Test results published in the supplement of paper PMC4604168 (melanoma cell lines).
The list shows a part of the results. Single values are uncertain, as repeats are few or missing.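 Cells were imaged in 1,536-well plates, and nuclei stained with an antibody against cleaved PARP were counted against all DNA-stained nuclei to give the apoptosis fraction. Screening doses were chosen to leave most cells alive, and resting and induced cleaved-PARP levels differ strongly between cell lines.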

The molecules below were run on MEL-HO (assay: cleaved PARP positive nuclei fraction relative to DMSO control; melanoma cells; higher = more apoptosis). Settings: library dose: low library concentration; 72 h.

Structure (SMILES)	cleaved PARP positive nuclei fraction
CC1(C)CCC(c2ccc(Cl)cc2)=C(CN2CCN(c3ccc(C(=O)NS(=O)(=O)c4ccc(N[C@H](CCN5CCOCC5)CSc5ccccc5)c(S(=O)(=O)C(F)(F)F)c4)cc3)CC2)C1 + Cc1cn(-c2cc(NC(=O)c3ccc(C)c(Nc4nccc(-c5cccnc5)n4)c3)cc(C(F)(F)F)c2)cn1 [nilotinib] (first compound 0.4 µM, partner dose 0.2 µM)	123%
C[C@@H](N)c1ccc(C(=O)Nc2ccnc3[nH]ccc23)cc1 + CCCCCCCCc1ccc(CCC(N)(CO)CO)cc1 [fingolimod] (first compound 0.4 µM, partner dose 2 µM)	202%
Cn1cnc2c(F)c(Nc3ccc(Br)cc3Cl)c(C(=O)NOCCO)cc21 [selumetinib] + CCCCCCCCc1ccc(CCC(N)(CO)CO)cc1 [fingolimod] (first compound 0.015 µM, partner dose 2 µM)	80.7%
C[C@]1(O)C[C@@H](c2nc(-c3ccc4ccc(-c5ccccc5)nc4c3)c3c(N)nccn32)C1 + Nc1ccn([C@@H]2O[C@H](CO)[C@@H](O)C2(F)F)c(=O)n1 [gemcitabine] (first compound 0.4 µM, partner dose 0.0004 µM)	54.3%
CCCCCCCCc1ccc(CCC(N)(CO)CO)cc1 [fingolimod] + Nc1nc(F)nc2c1ncn2[C@@H]1O[C@H](CO)[C@@H](O)[C@@H]1O [fludarabine] (first compound 2 µM, partner dose 0.2 µM)	102%
CCCCCCCCc1ccc(CCC(N)(CO)CO)cc1 [fingolimod] + C#Cc1cccc(Nc2ncnc3cc(OCCOC)c(OCCOC)cc23)c1 [erlotinib] (first compound 2 µM, partner dose 0.8 µM)	73.9%
C[C@]1(O)C[C@@H](c2nc(-c3ccc4ccc(-c5ccccc5)nc4c3)c3c(N)nccn32)C1 + O=C(O)[C@@H]1[O][Sb](=[O])([O][Sb]2(=[O])[O][C@H]([C@H](O)CO)[C@H](O)[C@H](C(=O)O)[O]2)[O][C@H]([C@H](O)CO)[C@@H]1O [stibogluconate] (first compound 0.4 µM, partner dose 2 µM)	40.2%
CC1(C)CCC(c2ccc(Cl)cc2)=C(CN2CCN(c3ccc(C(=O)NS(=O)(=O)c4ccc(N[C@H](CCN5CCOCC5)CSc5ccccc5)c(S(=O)(=O)C(F)(F)F)c4)cc3)CC2)C1 + COc1ccc(Cl)c(Nc2nc3ccccc3nc2NS(=O)(=O)c2cccc(NC(=O)C(C)(C)N)c2)c1 [XL147] (first compound 0.4 µM, partner dose 0.8 µM)	74%
CC(=O)O[C@@]12CO[C@@H]1C[C@H](O)[C@@]1(C)C(=O)[C@H](O)C3=C(C)[C@@H](OC(=O)[C@H](O)[C@@H](NC(=O)OC(C)(C)C)c4ccccc4)C[C@@](O)([C@@H](OC(=O)c4ccccc4)[C@H]21)C3(C)C [Docetaxel] + Cc1nc(Nc2ncc(C(=O)Nc3c(C)cccc3Cl)s2)cc(N2CCN(CCO)CC2)n1 [dasatanib] (first compound 0.0001 µM, partner dose 0.004 µM)	446%
CN(c1ncccc1CNc1nc(Nc2ccc3c(c2)CC(=O)N3)ncc1C(F)(F)F)S(C)(=O)=O + C=CCNC1=C2C[C@@H](C)C[C@H](OC)[C@H](O)[C@@H](C)/C=C(\C)[C@H](OC(N)=O)[C@@H](OC)/C=C\C=C(/C)C(=O)NC(=CC1=O)C2=O [Tanespimycin] (first compound 0.08 µM, partner dose 0.002 µM)	71.4%
C[C@]1(O)C[C@@H](c2nc(-c3ccc4ccc(-c5ccccc5)nc4c3)c3c(N)nccn32)C1 + CCN(CC)CCNC(=O)c1c(C)[nH]c(/C=C2\C(=O)Nc3ccc(F)cc32)c1C [sunitinib] (first compound 0.4 µM, partner dose 0.4 µM)	72.4%
C[C@]1(O)C[C@@H](c2nc(-c3ccc4ccc(-c5ccccc5)nc4c3)c3c(N)nccn32)C1 + C[C@]1(c2nc3c(C(N)=O)cccc3[nH]2)CCCN1 [Veliparib] (first compound 0.4 µM, partner dose 1.4 µM)	73.8%
CCN(CC)CCNC(=O)c1c(C)[nH]c(/C=C2\C(=O)Nc3ccc(F)cc32)c1C [sunitinib] + C[C@]1(c2nc3c(C(N)=O)cccc3[nH]2)CCCN1 [Veliparib] (first compound 0.4 µM, partner dose 1.4 µM)	132%
CC1(C)CCC(c2ccc(Cl)cc2)=C(CN2CCN(c3ccc(C(=O)NS(=O)(=O)c4ccc(N[C@H](CCN5CCOCC5)CSc5ccccc5)c(S(=O)(=O)C(F)(F)F)c4)cc3)CC2)C1 + CN1CCN(c2ccc3nc(-c4c(N)c5c(F)cccc5[nH]c4=O)[nH]c3c2)CC1 [Dovitinib] (first compound 0.4 µM, partner dose 0.1 µM)	49.3%
Cn1sc(=O)n(Cc2ccccc2)c1=O + Cn1c(Nc2ccc(C(F)(F)F)cc2)nc2cc(Oc3ccnc(-c4ncc(C(F)(F)F)[nH]4)c3)ccc21 [CHIR265] (first compound 0.4 µM, partner dose 0.08 µM)	49.5%
Cn1cnc2c(F)c(Nc3ccc(Br)cc3Cl)c(C(=O)NOCCO)cc21 [selumetinib] + C#Cc1cccc(Nc2ncnc3cc(OCCOC)c(OCCOC)cc23)c1 [erlotinib] (first compound 0.015 µM, partner dose 0.8 µM)	146%
NC(=O)c1ccc(N(C(N)=O)c2c(F)cccc2F)nc1-c1ccc(F)cc1F + C[C@@H](Oc1cc(-c2cnn(C3CCNCC3)c2)cnc1N)c1c(Cl)ccc(F)c1Cl [Crizotinib] (first compound 0.4 µM, partner dose 0.2 µM)	109%
CCN(CC)CCNC(=O)c1c(C)[nH]c(/C=C2\C(=O)Nc3ccc(F)cc32)c1C [sunitinib] + Nc1ccn([C@@H]2O[C@H](CO)[C@@H](O)C2(F)F)c(=O)n1 [gemcitabine] (first compound 0.4 µM, partner dose 0.0004 µM)	101%
CC1(C)CCC(c2ccc(Cl)cc2)=C(CN2CCN(c3ccc(C(=O)NS(=O)(=O)c4ccc(N[C@H](CCN5CCOCC5)CSc5ccccc5)c(S(=O)(=O)C(F)(F)F)c4)cc3)CC2)C1 + CS(=O)(=O)CCNCc1ccc(-c2ccc3ncnc(Nc4ccc(OCc5cccc(F)c5)c(Cl)c4)c3c2)o1 [lapatinib] (first compound 0.4 µM, partner dose 0.8 µM)	166%
CC1(C)CCC(c2ccc(Cl)cc2)=C(CN2CCN(c3ccc(C(=O)NS(=O)(=O)c4ccc(N[C@H](CCN5CCOCC5)CSc5ccccc5)c(S(=O)(=O)C(F)(F)F)c4)cc3)CC2)C1 + CCCS(=O)(=O)Nc1ccc(F)c(C(=O)c2c[nH]c3ncc(Cl)cc23)c1F [PLX4720] (first compound 0.4 µM, partner dose 0.08 µM)	58%
CN(c1ncccc1CNc1nc(Nc2ccc3c(c2)CC(=O)N3)ncc1C(F)(F)F)S(C)(=O)=O + NC1(c2ccc(-c3nc4ccn5c(=O)[nH]nc5c4cc3-c3ccccc3)cc2)CCC1 [MK2206] (first compound 0.08 µM, partner dose 0.4 µM)	87.5%
C[C@@H](N)c1ccc(C(=O)Nc2ccnc3[nH]ccc23)cc1 + Nc1ccn([C@@H]2O[C@H](CO)[C@@H](O)C2(F)F)c(=O)n1 [gemcitabine] (first compound 0.4 µM, partner dose 0.0004 µM)	127%
CS(=O)(=O)c1ccc(C(=O)Nc2ccc(Cl)c(-c3ccccn3)c2)c(Cl)c1 [vismodegib] + CCCCCCCCc1ccc(CCC(N)(CO)CO)cc1 [fingolimod] (first compound 1 µM, partner dose 2 µM)	39.1%
C[C@@H](N)c1ccc(C(=O)Nc2ccnc3[nH]ccc23)cc1 + Nc1ncn([C@H]2C[C@H](O)[C@@H](CO)O2)c(=O)n1 [decitabine] (first compound 0.4 µM, partner dose 0.1 µM)	57.5%
C[C@]1(O)C[C@@H](c2nc(-c3ccc4ccc(-c5ccccc5)nc4c3)c3c(N)nccn32)C1 + CS(=O)(=O)c1ccc(C(=O)Nc2ccc(Cl)c(-c3ccccn3)c2)c(Cl)c1 [vismodegib] (first compound 0.4 µM, partner dose 1 µM)	125%
C[C@@H](N)c1ccc(C(=O)Nc2ccnc3[nH]ccc23)cc1 + CCCS(=O)(=O)Nc1ccc(F)c(C(=O)c2c[nH]c3ncc(Cl)cc23)c1F [PLX4720] (first compound 0.4 µM, partner dose 0.08 µM)	155%
CN(c1ncccc1CNc1nc(Nc2ccc3c(c2)CC(=O)N3)ncc1C(F)(F)F)S(C)(=O)=O + O=C(O)c1ccc2c(c1)nc(Nc1cccc(Cl)c1)c1ccncc12 [CX4945] (first compound 0.08 µM, partner dose 0.4 µM)	253%
NC(=O)c1ccc(N(C(N)=O)c2c(F)cccc2F)nc1-c1ccc(F)cc1F + C=CCNC1=C2C[C@@H](C)C[C@H](OC)[C@H](O)[C@@H](C)/C=C(\C)[C@H](OC(N)=O)[C@@H](OC)/C=C\C=C(/C)C(=O)NC(=CC1=O)C2=O [Tanespimycin] (first compound 0.4 µM, partner dose 0.002 µM)	107%
Cn1cnc2c(F)c(Nc3ccc(Br)cc3Cl)c(C(=O)NOCCO)cc21 [selumetinib] + Nc1ccn([C@@H]2O[C@H](CO)[C@@H](O)C2(F)F)c(=O)n1 [gemcitabine] (first compound 0.015 µM, partner dose 0.0004 µM)	109%

Nothing new here: an excerpt of the list.
Structure (SMILES)	cleaved PARP positive nuclei fraction
NC(=O)c1ccc(N(C(N)=O)c2c(F)cccc2F)nc1-c1ccc(F)cc1F + C=CCNC1=C2C[C@@H](C)C[C@H](OC)[C@H](O)[C@@H](C)/C=C(\C)[C@H](OC(N)=O)[C@@H](OC)/C=C\C=C(/C)C(=O)NC(=CC1=O)C2=O [Tanespimycin] (first compound 0.4 µM, partner dose 0.002 µM)	107%
Cn1cnc2c(F)c(Nc3ccc(Br)cc3Cl)c(C(=O)NOCCO)cc21 [selumetinib] + Nc1ccn([C@@H]2O[C@H](CO)[C@@H](O)C2(F)F)c(=O)n1 [gemcitabine] (first compound 0.015 µM, partner dose 0.0004 µM)	109%
